This test has as its target T1, MmPepT1^ECD, extracellular domain of Mus musculus PepT1 (residues 391–580) (Mus musculus) (UniProt Q9JIP7).
T1 sequence: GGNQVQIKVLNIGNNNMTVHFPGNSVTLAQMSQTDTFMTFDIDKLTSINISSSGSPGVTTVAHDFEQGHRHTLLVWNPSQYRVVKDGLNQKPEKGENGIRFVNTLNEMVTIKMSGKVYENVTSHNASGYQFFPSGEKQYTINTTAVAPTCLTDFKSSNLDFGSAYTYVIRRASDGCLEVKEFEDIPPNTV
Put plainly: SPR; PepT1^ECD or PepT2^ECD immobilised on a CM5 chip by amine coupling (1,000 RU); ligand 7.81-1000 μM injected; 20°C; 25 mM MES pH 6.5, 100 mM NaCl, 10 mM CaCl2, 0.005% Tween 20, 2 mg/ml dextran, 1 mg/ml salmon sperm DNA; global 1:1 model; both purified.

Results are given in words; binding and its absence hold for the method and conditions named.

The record followed here is PMC4597091.

For the substance chymotrypsin (enzyme), the binding result is recorded as “no binding (tested: 1000 μM)”.
